From paper PMC3459802
For at least one entry, the source does not settle the construct or the ends of the probe. Where cells or extracts were used, other partners may take part.

System: SMAR1 (Rin 5f lysate) (rat (Rin 5f cells))
Assay: CNBr pull-down, western blot
Settings: pull-down: 20 mM HEPES pH 7.9, 1 mM EDTA, 30 mM KCl, 100 mM NaCl, 1 mM DTT, 25% glycerol, 0.2% Tween-20, room temp; protein in an extract; label: CNBr-Sepharose coupled

Sequence: TAAAGTGTAAAGCCTGGGGTGCCTAATGAGATGAGCTAACTCACATTAATT (double strand) [SMAR1 consensus oligo (double stranded)]
- binding result: binds
